PubChem BioAssay AID1259280, Sanger Institute – 2017

Screen: 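Kinase knock-downs that kill colorectal cancer cells or add to anchor drugs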 (primary screen)
Cells: human SNU407 colorectal cancer cells
Knock-down reagent: siRNA pool against human genes
Challenge: anchor drugs BYL719 at 1 µM, cetuximab at 5 µg/ml or trametinib at 10 nM, or DMSO vehicle alone; exposure time not given
Measured: 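Viability relative to non-targeting control siRNA, expressed as robust z-score, plus a synergy score for each of the three anchor drugs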
Direction: viability z-score, no drug and viability vs control, no drug: higher = more cells survive the knock-down; synergy with trametinib and synergy with BYL719 and synergy with cetuximab: higher = stronger synergy of knock-down with drug
Hit rule: 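Essential calls require a no-drug robust viability z-score under -3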
Calls: active = essential (knock-down alone kills cells); inactive = no change without drug
In all, the deposit lists 794 reagents; shown is a random part of them. Of all reagents, 12 (1.5%) got an active call. 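Calls cover knock-down without drug only; synergy scores stand apart, values above 0.15 being treated as synergy.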 No viability above 1 is reported: the scale is capped. No sequences are given here. Not stated in the record: the amount of reagent, the time to read-out.

| Gene | viability z-score, no drug | viability vs control, no drug (fraction of control) | synergy with trametinib | synergy with BYL719 | synergy with cetuximab | call |
| --- | --- | --- | --- | --- | --- | --- |
| IRAK4 (interleukin 1 receptor associated kinase 4) | 0.351 | 0.958 | 0.0472 | 0.00971 | 0.0377 | inactive |
| EXOSC10 (exosome component 10) | -1.1 | 0.847 | 0.0124 | 0.0456 | -0.0771 | inactive |
| CEP290 (centrosomal protein 290) | 0.901 | 1 | 0.0063 | -0.0273 | 0.109 | inactive |
| CSNK2A1 (casein kinase 2 alpha 1) | 0.901 | 1 | -0.0663 | -0.0955 | -0.0513 | inactive |
| WT1 (WT1 transcription factor) | 0.0792 | 0.937 | -0.0165 | -0.0361 | -0.133 | inactive |
| MAP2K7 (mitogen-activated protein kinase kinase 7) | -0.231 | 0.914 | 0.0385 | 0.0448 | 0.0554 | inactive |
| CDKL3 (cyclin dependent kinase like 3) | -0.209 | 0.915 | -0.114 | -0.0199 | -0.166 | inactive |
| CHD4 (chromodomain helicase DNA binding protein 4) | -3.23 | 0.685 | -0.105 | 0.0994 | -0.00948 | active |
| PRKCH (protein kinase C eta) | -1.03 | 0.852 | 0.0677 | 0.145 | 0.0883 | inactive |
| TNK1 (tyrosine kinase non receptor 1) | -0.757 | 0.873 | -0.0479 | 0.00534 | 0.0295 | inactive |
| AK4 (adenylate kinase 4) | 0.901 | 1 | -0.0941 | 0.0177 | 0.0127 | inactive |
| UCKL1 (uridine-cytidine kinase 1 like 1) | 0.901 | 1 | -0.0723 | -0.022 | -0.0886 | inactive |
| TRIB1 (tribbles pseudokinase 1) | 0.0875 | 0.938 | -0.0224 | -0.0575 | 0.0516 | inactive |
| CDADC1 (cytidine and dCMP deaminase domain containing 1) | 0.308 | 0.955 | 0.0892 | 0.0134 | 0.0832 | inactive |
| KALRN (kalirin RhoGEF kinase) | -1.65 | 0.805 | -0.00544 | -0.0483 | -0.0656 | inactive |
| RPS6KC1 (ribosomal protein S6 kinase C1) | 0.539 | 0.972 | -0.116 | -0.0775 | -0.0883 | inactive |
| PRKAR1A | 0.901 | 1 | -0.0134 | 0.101 | -0.00797 | inactive |

4 entries from above, sorted by “viability vs control, no drug (fraction of control)”, descending.
| Gene | viability z-score, no drug | viability vs control, no drug (fraction of control) | synergy with trametinib | synergy with BYL719 | synergy with cetuximab | call |
| --- | --- | --- | --- | --- | --- | --- |
| CDKL3 (cyclin dependent kinase like 3) | -0.209 | 0.915 | -0.114 | -0.0199 | -0.166 | inactive |
| TNK1 (tyrosine kinase non receptor 1) | -0.757 | 0.873 | -0.0479 | 0.00534 | 0.0295 | inactive |
| PRKCH (protein kinase C eta) | -1.03 | 0.852 | 0.0677 | 0.145 | 0.0883 | inactive |
| CHD4 (chromodomain helicase DNA binding protein 4) | -3.23 | 0.685 | -0.105 | 0.0994 | -0.00948 | active |

The listing continues:
| Gene | viability z-score, no drug | viability vs control, no drug (fraction of control) | synergy with trametinib | synergy with BYL719 | synergy with cetuximab | call |
| --- | --- | --- | --- | --- | --- | --- |
| SRPK2 (SRSF protein kinase 2) | -1.05 | 0.851 | -0.0807 | 0.0085 | -0.12 | inactive |
| PRKAG1 (protein kinase AMP-activated non-catalytic subunit gamma 1) | 0.281 | 0.953 | 0.0955 | 0.0337 | 0.0129 | inactive |
| ABL2 (ABL proto-oncogene 2, non-receptor tyrosine kinase) | 0.317 | 0.955 | 0.0137 | -0.00176 | 0.0247 | inactive |
| HIPK2 (homeodomain interacting protein kinase 2) | 0.101 | 0.939 | 0.025 | -0.0105 | -0.132 | inactive |
| TLK1 (tousled like kinase 1) | 0.807 | 0.993 | -0.0186 | 0.035 | 0.0684 | inactive |
| ACVR2B (activin A receptor type 2B) | -0.305 | 0.908 | -0.153 | -0.0621 | -0.137 | inactive |
| COMMD3 (COMM domain containing 3) | 0.901 | 1 | 0.153 | 0.0783 | 0.0368 | inactive |
| PDK4 (pyruvate dehydrogenase kinase 4) | 0.901 | 1 | 0.0672 | 0.134 | 0.0858 | inactive |
| MAP3K11 (mitogen-activated protein kinase kinase kinase 11) | 0.901 | 1 | 0.075 | 0.00986 | 0.0854 | inactive |
| WIPF1 (WAS/WASL interacting protein family member 1) | -1.59 | 0.81 | -0.0835 | -0.0278 | -0.0582 | inactive |
| FLT4 (fms related receptor tyrosine kinase 4) | 0.901 | 1 | -0.106 | 0.0205 | -0.0308 | inactive |
| PPP2R1A (protein phosphatase 2 scaffold subunit Aalpha) | 0.692 | 0.984 | -0.0942 | -0.0657 | -0.0384 | inactive |
| MAST2 (microtubule associated serine/threonine kinase 2) | 0.901 | 1 | 0.037 | 0.138 | 0.0984 | inactive |
| ROCK2 (Rho associated coiled-coil containing protein kinase 2) | -0.813 | 0.869 | -0.0767 | 0.0566 | 0.00924 | inactive |
| BTK (Bruton tyrosine kinase) | -0.555 | 0.889 | -0.12 | 0.068 | 0.163 | inactive |
| FGFR3 (fibroblast growth factor receptor 3) | 0.901 | 1 | 0.00955 | -0.0451 | 0.0418 | inactive |
| NUAK2 (NUAK family kinase 2) | 0.473 | 0.967 | -0.0379 | 0.182 | 0.0927 | inactive |
